According to article PMC12107181 (2025):
No constants are given. Whether binding was seen depends on the method and setting. Some binding calls cover weakened binding; strength is not graded here. Where a sequence is shown, tags or fusion partners need not be part of it.

T1: BD-SPA1 (Arabidopsis) (UniProt Q9SYX2)
T1 sequence: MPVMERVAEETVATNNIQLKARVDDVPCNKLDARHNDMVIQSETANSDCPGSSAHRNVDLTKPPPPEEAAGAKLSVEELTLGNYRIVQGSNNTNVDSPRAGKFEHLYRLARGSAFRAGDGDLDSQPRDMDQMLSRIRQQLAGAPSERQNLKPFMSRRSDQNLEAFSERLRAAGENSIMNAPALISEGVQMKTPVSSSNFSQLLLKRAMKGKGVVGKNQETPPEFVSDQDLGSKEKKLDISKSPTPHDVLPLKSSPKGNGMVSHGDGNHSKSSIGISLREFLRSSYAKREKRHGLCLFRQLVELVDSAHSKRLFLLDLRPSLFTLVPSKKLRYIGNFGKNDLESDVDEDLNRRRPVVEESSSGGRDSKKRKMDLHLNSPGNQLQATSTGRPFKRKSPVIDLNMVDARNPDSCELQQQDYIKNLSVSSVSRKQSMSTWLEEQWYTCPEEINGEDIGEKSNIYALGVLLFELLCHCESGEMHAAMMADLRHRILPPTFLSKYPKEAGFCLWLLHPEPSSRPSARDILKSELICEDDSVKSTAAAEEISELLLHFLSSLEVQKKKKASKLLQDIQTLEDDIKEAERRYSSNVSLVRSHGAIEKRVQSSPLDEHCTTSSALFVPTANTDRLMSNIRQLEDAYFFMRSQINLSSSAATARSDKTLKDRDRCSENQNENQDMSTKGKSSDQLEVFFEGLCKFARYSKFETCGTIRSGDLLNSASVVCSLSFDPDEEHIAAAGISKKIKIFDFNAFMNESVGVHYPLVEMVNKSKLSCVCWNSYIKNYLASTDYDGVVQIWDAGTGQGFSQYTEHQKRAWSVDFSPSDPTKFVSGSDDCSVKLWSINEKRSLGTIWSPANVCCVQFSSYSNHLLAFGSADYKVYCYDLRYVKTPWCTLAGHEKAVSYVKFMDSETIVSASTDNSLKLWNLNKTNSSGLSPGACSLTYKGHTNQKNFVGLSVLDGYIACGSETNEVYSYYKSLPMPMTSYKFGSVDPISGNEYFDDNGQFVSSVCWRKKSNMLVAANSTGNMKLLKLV

T2: BD-COP1 (Arabidopsis) (UniProt P43254)
T2 sequence: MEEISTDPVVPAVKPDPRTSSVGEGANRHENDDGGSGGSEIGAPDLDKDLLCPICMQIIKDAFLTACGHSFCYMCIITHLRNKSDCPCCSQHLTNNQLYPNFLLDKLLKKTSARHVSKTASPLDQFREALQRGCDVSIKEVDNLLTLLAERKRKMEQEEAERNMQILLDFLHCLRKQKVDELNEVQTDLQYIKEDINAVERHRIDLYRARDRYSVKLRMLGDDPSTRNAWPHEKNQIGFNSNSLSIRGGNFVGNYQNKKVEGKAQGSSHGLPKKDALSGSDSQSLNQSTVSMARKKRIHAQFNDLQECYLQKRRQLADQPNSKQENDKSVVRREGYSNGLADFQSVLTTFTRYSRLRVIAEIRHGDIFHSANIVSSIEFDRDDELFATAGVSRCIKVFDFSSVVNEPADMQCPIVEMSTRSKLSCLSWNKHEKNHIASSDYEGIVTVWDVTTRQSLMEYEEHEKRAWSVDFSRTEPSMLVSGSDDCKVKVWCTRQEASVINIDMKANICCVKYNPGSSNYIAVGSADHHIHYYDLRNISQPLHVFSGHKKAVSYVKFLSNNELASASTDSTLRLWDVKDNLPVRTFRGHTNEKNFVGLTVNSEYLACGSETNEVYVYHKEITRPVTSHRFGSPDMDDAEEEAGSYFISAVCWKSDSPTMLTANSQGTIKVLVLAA


What was measured:
BD-SPA1 (Arabidopsis) = molecular target: T1, BD-SPA1 (Arabidopsis); test: two-hybrid; directed Y2H; BD fusion as bait, AD fusion as prey; transformed yeast grown on the indicated media at decreasing OD (Fig. 1A; the Y2H panels of SI Appendix, Figs. S4 and S5D, whose read-out was not shown, are put here)
BD-COP1 (Arabidopsis) [1] = molecular target: T2, BD-COP1 (Arabidopsis); test: as above
BD-COP1 (Arabidopsis) [2] = molecular target: T2, BD-COP1 (Arabidopsis); test: two-hybrid; Y2H, quantified read-out with SD of three independent biological replicates (Fig. 2B, E, F); BD-COP1 or its mutants with AD fusions

Binder | binding (BD-SPA1 (Arabidopsis)) | binding (BD-COP1 (Arabidopsis) [1]) | binding (BD-COP1 (Arabidopsis) [2])
AD-TCP10 (protein, UniProt O82277 1-361) MGLKGYSVGEGGGEIVEVQGGHIIRATGRKDRHSKVFTSKGPRDRRVRLSAHTAIQFYDVQDRLGYDRPSKAVDWLIKKAKTAIDKLELGETTTTTTRQEPVNTKPESPTLVFQRENNDQTQFVAANLDPEDAMKTFFPATTTTNGGGGTNINFQNYPHQDDNNMVSRTTTPPPNLSQDLGLSLHPFQGNNNTVVVPETNNFTTTHFDTFGRISGWNHHDLTMTSSSSSEHQQQEQEERSNGGFMVNHHPHHHHHQPSMMTLLNSQQQQVFLGGQQQQQQRGTLQSSLFPHSFRSWDHHQTTSDHHHHQNQASSMFASSSQYGSHGMMMMQGLSFPNTTRLLHGEEATQPNSSSSPPNSHL | binds | binds | binds
AD-PAP2 (protein, UniProt Q9ZTC3 1-249) MEGSSKGLRKGAWTAEEDSLLRLCIDKYGEGKWHQVPLRAGLNRCRKSCRLRWLNYLKPSIKRGRLSNDEVDLLLRLHKLLGNRWSLIAGRLPGRTANDVKNYWNTHLSKKHESSCCKSKMKKKNIISPPTTPVQKIGVFKPRPRSFSVNNGCSHLNGLPEVDLIPSCLGLKKNNVCENSITCNKDDEKDDFVNNLMNGDNMWLENLLGENQEADAIVPEATTAEHGATLAFDVEQLWSLFDGETVELD | – | – | binds
